Experimental data taken from US20170173114A1, “METHODS AND COMPOSITIONS FOR INDUCTION OF UCP1 EXPRESSION” (Joslin Diabetes Center, Inc., priority 2014, published 2017).
Some results were stated once for a whole list of compounds, not compound by compound.

Tested on: UCP1
Assay: UCP1 mRNA expression (Q-RT-PCR) in WT-1 brown preadipocytes
Assay type: cell-based, murine
Conditions: 200 ng/mL with insulin and T3, three days
Procedure: Total RNA was isolated with QIAzol lysis reagent (Qiagen, Valencia, Calif.) and purified by RNeasy Mini columns (Qiagen) following the manufacture's instructions. cDNA was prepared from total RNA using the Advantage RT-PCR kit (BD Biosciences, Palo Alto, Calif.) according to manufacturer's instructions. Diluted cDNA was used in a PCR reaction with SYBR Green Master Mix (Applied Biosystems, Foster City, Calif.) and primers specifically designed for detection of the gene of interest. PCR reactions were run in duplicate for each sample and quantitated in the ABI Sequence Detection System (Applied Biosystems). Data were expressed as arbitrary units after normalization to levels of expression of internal controls for each sample. Sequences of primers for specific genes are each obtained from the published literature or designed using publically available gene sequence databases. Unless otherwise indicated, gene expression data described in the examples below was obtained using QPCR. […]
UCP1 mRNA expression in brown adipocyte cells was determined at FGF6 concentrations ranging from 0 to 300 ng/ml in the absence of induction cocktail.
In order to determine the length of time necessary to induce UCP1 expression upon exposure to of cells to FGF6, an experiment was performed whereby FGF6 was administered to brown preadipocytes at a concentration of 200 ng/ml and UCP1 expression was determined. […]

FGF20: fibroblast growth factor 20 was tested, and the “expression of UCP1 mRNA relative to the control” value was at least 5 fold.
